Laboratory results reported in patent US7741288B2, “Methods of screening of PP1-interacting polypeptides or proteins, peptides inhibiting PP1c binding to Bcl-2 proteins, Bcl-xL and Bcl-w, and uses thereof” (Institut Pasteur, priority 2002, dated 2010).
These are yes or no findings as the source states them, for the method shown. For some assays here: Binding seen in cells or lysates may run through a third protein. Some binding calls cover weakened binding; strength is not graded here.

Protein sequences, listed by entry. Tags and fused reporters are not part of them. Residues count along the entry.
UniProt P62137, residues 2-330: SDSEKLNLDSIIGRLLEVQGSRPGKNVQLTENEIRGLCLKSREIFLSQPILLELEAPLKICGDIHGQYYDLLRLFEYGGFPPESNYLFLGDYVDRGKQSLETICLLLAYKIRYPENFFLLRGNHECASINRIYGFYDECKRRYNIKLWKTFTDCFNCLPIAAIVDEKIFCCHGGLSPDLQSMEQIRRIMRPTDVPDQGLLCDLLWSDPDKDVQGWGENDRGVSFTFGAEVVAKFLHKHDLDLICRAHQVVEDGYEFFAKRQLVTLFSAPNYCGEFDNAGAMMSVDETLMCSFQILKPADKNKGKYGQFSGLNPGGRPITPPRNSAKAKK
UniProt Q64373: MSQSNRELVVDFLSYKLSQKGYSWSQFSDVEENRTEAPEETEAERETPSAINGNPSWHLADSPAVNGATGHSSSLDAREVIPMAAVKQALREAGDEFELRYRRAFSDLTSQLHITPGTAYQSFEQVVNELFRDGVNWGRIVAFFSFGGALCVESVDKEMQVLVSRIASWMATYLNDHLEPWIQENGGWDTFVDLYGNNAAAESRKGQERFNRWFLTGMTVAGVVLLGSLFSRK
UniProt P06332, residues 27-457: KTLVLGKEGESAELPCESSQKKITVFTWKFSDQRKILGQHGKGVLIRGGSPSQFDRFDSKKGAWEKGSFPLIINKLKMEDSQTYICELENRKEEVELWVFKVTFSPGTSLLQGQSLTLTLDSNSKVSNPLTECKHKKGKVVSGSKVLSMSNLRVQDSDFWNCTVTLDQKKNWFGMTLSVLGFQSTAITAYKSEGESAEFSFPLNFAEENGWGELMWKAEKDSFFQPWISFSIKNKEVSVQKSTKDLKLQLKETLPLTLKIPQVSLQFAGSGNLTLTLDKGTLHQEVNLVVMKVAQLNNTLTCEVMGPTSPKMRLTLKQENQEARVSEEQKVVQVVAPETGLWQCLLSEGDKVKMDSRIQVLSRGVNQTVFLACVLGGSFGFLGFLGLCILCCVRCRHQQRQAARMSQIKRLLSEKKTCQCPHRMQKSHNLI

Experiments:
[1] = biological target: PP1c, catalytic subunit of the serine/threonine phosphatase PP1, endogenous in TS1αβ cells (murine (TS1αβ murine T cell line)) (UniProt P62137); assay: immunoprecipitation from IL-4 treated TS1αβ cells, blot with anti-PP1c
[2] = biological target: PP1c, catalytic subunit of the serine/threonine phosphatase PP1, endogenous in TS1αβ cells (murine (TS1αβ murine T cell line)) (UniProt P62137); assay: co-immunoprecipitation, blot with anti-PP1c
[3] = biological target: T1, Bad, endogenous in TS1αβ cells (murine (TS1αβ murine T cell line)) (UniProt Q61337); assay: co-immunoprecipitation with anti-Bad, Western blot (also detergent-free and digitonin lysates, data not shown)
T1 sequence (phosphoserine 136 in IL-4-stimulated cells, looked up): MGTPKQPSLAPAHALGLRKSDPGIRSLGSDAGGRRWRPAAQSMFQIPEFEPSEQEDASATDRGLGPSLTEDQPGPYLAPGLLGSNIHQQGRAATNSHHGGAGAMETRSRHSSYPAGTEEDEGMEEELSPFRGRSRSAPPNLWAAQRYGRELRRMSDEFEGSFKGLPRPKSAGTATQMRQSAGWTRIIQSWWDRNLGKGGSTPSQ

[4] = biological target: PP1c, catalytic subunit of the serine/threonine phosphatase PP1, endogenous in TS1αβ cells (murine (TS1αβ murine T cell line)) (UniProt P62137); assay: co-immunoprecipitation and Western blot, title of FIG. 1
[5] = biological target: T1, Bad, endogenous in TS1αβ cells (murine (TS1αβ murine T cell line)); assay: as above
[6] = biological target: T1, Bad, endogenous in TS1αβ cells (murine (TS1αβ murine T cell line)); assay: anti-Bad immunoprecipitation of control extracts of IL-4 stimulated cells, Western blot
[7] = biological target: T1, Bad, endogenous in TS1αβ cells (murine (TS1αβ murine T cell line)); assay: co-immunoprecipitation with anti-Bad from freshly isolated thymocytes, Western blot
[8] = biological target: PP1c, catalytic subunit of the serine/threonine phosphatase PP1, endogenous in TS1αβ cells (murine (TS1αβ murine T cell line)) (UniProt P62137); assay: anti-PP1c immunoprecipitation of control extracts of IL-4 stimulated cells, Western blot
[9] = biological target: PP1c, catalytic subunit of the serine/threonine phosphatase PP1, endogenous in TS1αβ cells (murine (TS1αβ murine T cell line)) (UniProt P62137); assay: co-immunoprecipitation with anti-PP1c from freshly isolated thymocytes, Western blot
[10] = biological target: T1, Bad, endogenous in TS1αβ cells (murine (TS1αβ murine T cell line)); assay: control anti-Bad immunoprecipitates of the competition experiment, Western blot
[11] = biological target: T2, Bcl-w, endogenous in TS1αβ cells (murine (TS1αβ murine T cell line)) (UniProt P70345); assay: co-immunoprecipitation with anti-Bcl-w from cytoplasmic extracts, Western blot
T2 sequence (serine phosphorylated in IL-4-stimulated cells (site not stated), looked up): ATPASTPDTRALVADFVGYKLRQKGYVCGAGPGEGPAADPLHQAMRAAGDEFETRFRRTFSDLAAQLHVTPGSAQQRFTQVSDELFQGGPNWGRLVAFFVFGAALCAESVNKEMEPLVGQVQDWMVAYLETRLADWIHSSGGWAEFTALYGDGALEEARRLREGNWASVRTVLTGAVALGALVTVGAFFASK

[12] = biological target: Bcl-xL, endogenous in TS1αβ cells (murine (TS1αβ murine T cell line)) (UniProt Q64373); assay: co-immunoprecipitation with anti-Bcl-xL from cytoplasmic extracts, Western blot

Measured: binding

CD4, endogenous in TS1αβ cells (from UniProt P06332 27-457) (receptor)
binds: [1] | [2]

Bcl-xL, endogenous in TS1αβ cells (from UniProt Q64373 1-233)
not listed: [1] | [2] | [11] | [12]
binds: all other assays above

PP1c, catalytic subunit of the serine/threonine phosphatase PP1, endogenous in TS1αβ cells (from UniProt P62137 2-330) (enzyme)
binds: [11] | [12]

B1: Bcl-w, endogenous in TS1αβ cells (protein, murine (TS1αβ murine T cell line), UniProt P70345 2-193, looked up)
chain: ATPASTPDTRALVADFVGYKLRQKGYVCGAGPGEGPAADPLHQAMRAAGDEFETRFRRTFSDLAAQLHVTPGSAQQRFTQVSDELFQGGPNWGRLVAFFVFGAALCAESVNKEMEPLVGQVQDWMVAYLETRLADWIHSSGGWAEFTALYGDGALEEARRLREGNWASVRTVLTGAVALGALVTVGAFFASK
modifications: serine phosphorylated in IL-4-stimulated cells (site not stated)
binds: [3] | [4] | [5] | [6] | [8] | [10]

B2: Bad, endogenous in TS1αβ cells (protein, murine (TS1αβ murine T cell line), UniProt Q61337 1-204, looked up)
chain: MGTPKQPSLAPAHALGLRKSDPGIRSLGSDAGGRRWRPAAQSMFQIPEFEPSEQEDASATDRGLGPSLTEDQPGPYLAPGLLGSNIHQQGRAATNSHHGGAGAMETRSRHSSYPAGTEEDEGMEEELSPFRGRSRSAPPNLWAAQRYGRELRRMSDEFEGSFKGLPRPKSAGTATQMRQSAGWTRIIQSWWDRNLGKGGSTPSQ
modifications: phosphoserine 136 in IL-4-stimulated cells
binds: [11] | [12]
